According to the supplement of paper PMC10849652:
The list shows a part of the results.

Sequences of proteins named here, by UniProt entry; tags and fusion partners are left off. A change or cut given only in a name is not applied to a line headed by its entry.
UniProt P30085: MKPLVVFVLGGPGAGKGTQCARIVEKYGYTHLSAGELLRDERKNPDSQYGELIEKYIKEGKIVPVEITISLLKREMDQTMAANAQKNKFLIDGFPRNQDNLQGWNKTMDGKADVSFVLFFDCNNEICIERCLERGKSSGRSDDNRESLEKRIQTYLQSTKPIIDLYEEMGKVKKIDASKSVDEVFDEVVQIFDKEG
UniProt Q96FZ7: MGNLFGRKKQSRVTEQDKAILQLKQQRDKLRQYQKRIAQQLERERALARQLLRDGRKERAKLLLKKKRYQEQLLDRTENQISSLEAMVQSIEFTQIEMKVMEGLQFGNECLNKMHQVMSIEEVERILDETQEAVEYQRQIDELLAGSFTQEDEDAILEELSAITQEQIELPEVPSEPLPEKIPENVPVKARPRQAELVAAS
UniProt Q9Y2R0: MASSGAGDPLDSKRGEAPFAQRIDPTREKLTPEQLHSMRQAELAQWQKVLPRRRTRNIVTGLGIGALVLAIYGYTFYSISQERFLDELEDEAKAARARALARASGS
UniProt Q9H078: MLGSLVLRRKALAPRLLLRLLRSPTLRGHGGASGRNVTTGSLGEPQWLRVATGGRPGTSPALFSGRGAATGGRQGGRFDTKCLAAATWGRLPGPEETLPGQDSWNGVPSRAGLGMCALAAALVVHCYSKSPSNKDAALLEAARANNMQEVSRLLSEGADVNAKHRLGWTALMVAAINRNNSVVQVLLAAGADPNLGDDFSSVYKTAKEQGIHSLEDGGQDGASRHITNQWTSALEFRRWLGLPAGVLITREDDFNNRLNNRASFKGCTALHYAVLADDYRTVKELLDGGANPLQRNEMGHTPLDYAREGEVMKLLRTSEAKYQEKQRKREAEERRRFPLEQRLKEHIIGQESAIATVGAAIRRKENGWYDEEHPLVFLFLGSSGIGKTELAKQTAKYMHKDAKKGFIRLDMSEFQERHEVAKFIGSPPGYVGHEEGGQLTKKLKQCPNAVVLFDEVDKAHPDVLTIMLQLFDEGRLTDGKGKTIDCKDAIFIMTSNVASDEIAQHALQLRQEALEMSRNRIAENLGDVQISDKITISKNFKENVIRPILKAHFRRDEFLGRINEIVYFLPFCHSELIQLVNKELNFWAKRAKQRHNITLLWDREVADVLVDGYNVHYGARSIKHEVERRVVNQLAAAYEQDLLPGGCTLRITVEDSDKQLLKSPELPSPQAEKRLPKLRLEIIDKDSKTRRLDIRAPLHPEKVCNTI
UniProt Q5EBM0: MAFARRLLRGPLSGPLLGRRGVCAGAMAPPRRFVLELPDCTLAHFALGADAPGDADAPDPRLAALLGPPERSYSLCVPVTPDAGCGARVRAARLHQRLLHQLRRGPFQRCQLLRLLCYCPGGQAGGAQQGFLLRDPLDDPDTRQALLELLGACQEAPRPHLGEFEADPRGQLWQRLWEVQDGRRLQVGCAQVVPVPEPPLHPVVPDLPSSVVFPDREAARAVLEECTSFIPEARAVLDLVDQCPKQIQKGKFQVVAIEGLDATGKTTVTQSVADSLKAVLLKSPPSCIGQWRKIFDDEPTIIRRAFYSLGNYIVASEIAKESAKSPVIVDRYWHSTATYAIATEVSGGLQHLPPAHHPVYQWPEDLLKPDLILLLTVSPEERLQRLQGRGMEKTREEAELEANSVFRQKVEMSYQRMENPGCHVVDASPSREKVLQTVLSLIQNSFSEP
UniProt Q7Z7K0: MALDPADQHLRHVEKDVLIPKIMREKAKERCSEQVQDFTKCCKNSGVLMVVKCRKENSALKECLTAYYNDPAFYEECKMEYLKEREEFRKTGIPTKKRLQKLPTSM
UniProt Q9GZY4: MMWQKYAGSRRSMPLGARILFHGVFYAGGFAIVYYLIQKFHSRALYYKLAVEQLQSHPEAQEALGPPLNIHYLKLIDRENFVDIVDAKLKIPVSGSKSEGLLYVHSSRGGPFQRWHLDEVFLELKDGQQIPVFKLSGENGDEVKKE
UniProt Q9BW66: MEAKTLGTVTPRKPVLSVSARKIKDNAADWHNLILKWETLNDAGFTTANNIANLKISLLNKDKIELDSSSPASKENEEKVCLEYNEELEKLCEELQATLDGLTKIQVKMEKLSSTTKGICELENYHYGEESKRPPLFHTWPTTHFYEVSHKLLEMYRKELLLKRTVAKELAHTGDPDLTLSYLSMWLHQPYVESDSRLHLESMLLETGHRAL
UniProt Q96BR5: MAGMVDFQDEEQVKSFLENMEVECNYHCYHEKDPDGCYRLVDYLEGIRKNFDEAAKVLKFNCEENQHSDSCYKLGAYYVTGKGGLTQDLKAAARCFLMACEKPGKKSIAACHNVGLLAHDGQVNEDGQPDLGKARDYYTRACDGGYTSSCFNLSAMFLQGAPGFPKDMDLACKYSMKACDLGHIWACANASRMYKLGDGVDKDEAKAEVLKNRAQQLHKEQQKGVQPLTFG
UniProt Q9NRP2: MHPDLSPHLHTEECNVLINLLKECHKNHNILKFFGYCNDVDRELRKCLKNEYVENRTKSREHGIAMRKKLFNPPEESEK
UniProt P39060, whole entry, looked up: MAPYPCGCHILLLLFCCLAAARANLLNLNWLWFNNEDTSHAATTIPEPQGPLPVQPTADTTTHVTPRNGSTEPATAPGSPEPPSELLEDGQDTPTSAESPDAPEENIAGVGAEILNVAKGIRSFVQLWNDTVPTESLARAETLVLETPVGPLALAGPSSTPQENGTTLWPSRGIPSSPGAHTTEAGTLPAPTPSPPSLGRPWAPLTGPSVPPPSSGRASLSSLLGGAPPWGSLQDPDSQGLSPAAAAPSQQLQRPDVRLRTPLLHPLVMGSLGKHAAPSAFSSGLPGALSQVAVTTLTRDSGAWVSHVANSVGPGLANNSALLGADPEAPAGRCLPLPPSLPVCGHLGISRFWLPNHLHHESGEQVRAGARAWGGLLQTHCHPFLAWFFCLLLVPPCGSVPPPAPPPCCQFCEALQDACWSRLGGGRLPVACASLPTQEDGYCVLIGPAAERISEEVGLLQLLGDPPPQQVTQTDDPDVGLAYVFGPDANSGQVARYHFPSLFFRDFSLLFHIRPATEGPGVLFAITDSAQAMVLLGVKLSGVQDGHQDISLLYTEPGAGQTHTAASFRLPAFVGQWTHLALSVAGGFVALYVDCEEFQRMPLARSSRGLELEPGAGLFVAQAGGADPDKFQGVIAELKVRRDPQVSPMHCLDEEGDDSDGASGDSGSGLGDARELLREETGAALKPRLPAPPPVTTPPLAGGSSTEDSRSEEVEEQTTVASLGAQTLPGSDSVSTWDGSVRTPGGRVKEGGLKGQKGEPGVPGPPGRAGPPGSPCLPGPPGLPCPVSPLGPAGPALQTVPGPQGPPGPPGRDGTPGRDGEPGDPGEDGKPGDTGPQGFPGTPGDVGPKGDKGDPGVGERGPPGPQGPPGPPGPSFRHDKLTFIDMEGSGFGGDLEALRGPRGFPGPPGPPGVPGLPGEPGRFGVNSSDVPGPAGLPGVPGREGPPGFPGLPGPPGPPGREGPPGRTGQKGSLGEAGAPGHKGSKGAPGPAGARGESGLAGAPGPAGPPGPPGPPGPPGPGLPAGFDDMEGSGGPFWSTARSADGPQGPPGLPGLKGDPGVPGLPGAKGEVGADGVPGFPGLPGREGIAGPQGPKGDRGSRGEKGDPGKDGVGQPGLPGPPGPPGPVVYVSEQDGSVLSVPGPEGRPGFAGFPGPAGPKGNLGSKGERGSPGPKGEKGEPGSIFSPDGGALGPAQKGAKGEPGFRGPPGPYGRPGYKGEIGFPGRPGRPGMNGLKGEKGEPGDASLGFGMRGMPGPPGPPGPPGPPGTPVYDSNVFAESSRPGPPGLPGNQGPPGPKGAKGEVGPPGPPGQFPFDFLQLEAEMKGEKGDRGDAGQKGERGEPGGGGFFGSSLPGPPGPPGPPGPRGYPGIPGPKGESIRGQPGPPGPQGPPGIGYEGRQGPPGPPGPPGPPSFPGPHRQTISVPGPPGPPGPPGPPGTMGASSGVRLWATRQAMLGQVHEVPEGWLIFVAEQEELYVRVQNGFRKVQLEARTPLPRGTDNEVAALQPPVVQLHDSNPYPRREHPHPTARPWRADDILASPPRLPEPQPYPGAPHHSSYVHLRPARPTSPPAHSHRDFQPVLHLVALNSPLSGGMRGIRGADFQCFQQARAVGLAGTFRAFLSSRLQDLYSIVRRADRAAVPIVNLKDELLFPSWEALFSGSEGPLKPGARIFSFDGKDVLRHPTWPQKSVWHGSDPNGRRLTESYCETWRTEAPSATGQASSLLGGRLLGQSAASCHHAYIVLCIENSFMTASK
UniProt Q9Y2B0: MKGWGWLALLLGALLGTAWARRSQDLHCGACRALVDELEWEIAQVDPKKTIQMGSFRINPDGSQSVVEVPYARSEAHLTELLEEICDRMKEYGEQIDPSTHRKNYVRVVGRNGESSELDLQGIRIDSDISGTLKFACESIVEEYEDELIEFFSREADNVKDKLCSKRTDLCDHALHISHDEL
UniProt O15247: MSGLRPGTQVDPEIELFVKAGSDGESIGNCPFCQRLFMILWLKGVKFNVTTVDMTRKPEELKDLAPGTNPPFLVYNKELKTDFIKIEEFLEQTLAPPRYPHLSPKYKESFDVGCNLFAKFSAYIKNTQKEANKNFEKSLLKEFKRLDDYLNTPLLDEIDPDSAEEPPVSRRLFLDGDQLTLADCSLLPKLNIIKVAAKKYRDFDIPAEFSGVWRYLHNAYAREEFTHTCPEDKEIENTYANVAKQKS
UniProt O96005: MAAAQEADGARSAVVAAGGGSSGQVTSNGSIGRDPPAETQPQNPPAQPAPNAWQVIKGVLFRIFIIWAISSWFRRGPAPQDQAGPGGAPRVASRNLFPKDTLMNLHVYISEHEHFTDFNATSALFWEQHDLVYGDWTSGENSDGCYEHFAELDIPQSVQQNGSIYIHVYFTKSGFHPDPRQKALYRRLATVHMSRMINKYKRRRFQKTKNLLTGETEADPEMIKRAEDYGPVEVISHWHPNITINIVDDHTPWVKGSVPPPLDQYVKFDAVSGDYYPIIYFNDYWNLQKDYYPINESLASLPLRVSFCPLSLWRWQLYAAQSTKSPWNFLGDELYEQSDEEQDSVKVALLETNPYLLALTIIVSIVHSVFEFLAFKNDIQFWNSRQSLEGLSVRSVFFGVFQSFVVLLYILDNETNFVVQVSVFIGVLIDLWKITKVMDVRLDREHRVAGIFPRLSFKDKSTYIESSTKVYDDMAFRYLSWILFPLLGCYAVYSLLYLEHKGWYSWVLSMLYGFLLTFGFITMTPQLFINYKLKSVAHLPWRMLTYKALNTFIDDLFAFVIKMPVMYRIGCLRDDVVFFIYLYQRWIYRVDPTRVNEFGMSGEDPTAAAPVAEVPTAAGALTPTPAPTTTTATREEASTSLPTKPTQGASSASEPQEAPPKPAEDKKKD
UniProt O14967: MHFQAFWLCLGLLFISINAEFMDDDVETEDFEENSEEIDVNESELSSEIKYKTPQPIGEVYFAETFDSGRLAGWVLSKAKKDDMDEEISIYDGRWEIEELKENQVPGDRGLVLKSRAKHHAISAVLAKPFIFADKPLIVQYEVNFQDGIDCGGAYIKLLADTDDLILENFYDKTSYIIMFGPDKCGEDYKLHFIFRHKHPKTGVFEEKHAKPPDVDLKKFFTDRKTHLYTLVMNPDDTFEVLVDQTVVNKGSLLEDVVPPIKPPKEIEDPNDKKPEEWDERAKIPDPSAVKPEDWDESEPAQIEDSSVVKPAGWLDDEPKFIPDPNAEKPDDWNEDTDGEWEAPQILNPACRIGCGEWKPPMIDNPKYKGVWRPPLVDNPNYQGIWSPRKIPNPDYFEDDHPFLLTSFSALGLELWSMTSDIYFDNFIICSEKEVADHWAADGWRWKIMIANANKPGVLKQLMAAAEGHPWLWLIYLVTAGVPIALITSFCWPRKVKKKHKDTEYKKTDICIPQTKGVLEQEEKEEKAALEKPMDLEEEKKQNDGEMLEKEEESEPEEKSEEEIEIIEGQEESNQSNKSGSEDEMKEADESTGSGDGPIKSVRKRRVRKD
UniProt Q92600, whole entry, looked up: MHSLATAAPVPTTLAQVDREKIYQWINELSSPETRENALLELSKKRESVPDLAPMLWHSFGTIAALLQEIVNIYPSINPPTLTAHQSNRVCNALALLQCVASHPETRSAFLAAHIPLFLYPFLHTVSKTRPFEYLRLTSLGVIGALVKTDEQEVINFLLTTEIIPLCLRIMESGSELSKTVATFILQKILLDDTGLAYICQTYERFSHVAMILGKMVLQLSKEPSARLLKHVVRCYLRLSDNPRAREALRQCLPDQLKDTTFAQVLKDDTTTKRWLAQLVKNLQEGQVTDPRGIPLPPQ
UniProt Q6FI81: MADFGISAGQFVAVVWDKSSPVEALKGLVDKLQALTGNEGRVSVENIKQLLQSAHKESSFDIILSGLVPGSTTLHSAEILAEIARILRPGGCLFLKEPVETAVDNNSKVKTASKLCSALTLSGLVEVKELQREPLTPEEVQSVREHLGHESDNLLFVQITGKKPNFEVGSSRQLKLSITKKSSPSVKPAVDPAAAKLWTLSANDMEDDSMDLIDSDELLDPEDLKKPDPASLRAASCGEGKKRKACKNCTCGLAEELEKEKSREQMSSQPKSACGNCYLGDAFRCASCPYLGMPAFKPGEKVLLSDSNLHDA

The targets below were run with Nc1ccccc1NC(=O)c1ccc(CNC(=O)OCc2cccnc2)cc1 [entinostat] (assay: log2 fold change, soluble protein after heating vs DMSO (PISA); higher = thermal stabilisation; K562 cells, 10 uM, 30 min; active = over 0.2 and 3.5 SD of the protein, either way, in both replicates (recomputed)).
How it was run: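 K562 cells (2×10^6 cells/mL) were treated with 10 μM compound for 30 min, and aliquots were heated for 3 min over 48°C-58°C. Pooled aliquots were extracted in PBS with 0.5% NP-40 at 4°C, and the supernatant after 21,000xg for 90 min was measured by TMTpro 16plex LC-MS/MS with channel sums equalised. Reported thermal stability, relative to control samples and from duplicates, is a log2 fold change.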

| Target | log2 fold change |
| --- | --- |
| CHURC1 isoform 2 (UniProt Q8WUH1) | inactive: -0.026 |
| CMPK1 (UniProt P30085) | inactive: -0.02 |
| CHMP6 (UniProt Q96FZ7) | inactive: 0.019 |
| COA3 (UniProt Q9Y2R0) | inactive: 0.013 |
| CLPB isoform 2 (UniProt Q9H078) | inactive: 0.022 |
| CMPK2 (UniProt Q5EBM0) | inactive: -0.024 |
| CMC1 (UniProt Q7Z7K0) | inactive: 0.004 |
| COA1 (UniProt Q9GZY4) | inactive: -0.021 |
| CINP isoform 3 (UniProt Q9BW66) | inactive: -0.101 |
| COA7 (UniProt Q96BR5) | inactive: -0.007 |
| CMC2 (UniProt Q9NRP2) | inactive: -0.01 |
| CIAO3 (UniProt Q9H6Q4) | inactive: -0.019 |
| CKMT1A (UniProt P12532) | inactive: -0.023 |
| COL18A1 (UniProt P39060) | inactive: -0.131 |
| CNPY2 (UniProt Q9Y2B0) | inactive: -0.007 |
| CLIC2 (UniProt O15247) | inactive: 0.084 |
| CLPTM1 (UniProt O96005) | inactive: 0.002 |
| CLGN (UniProt O14967) | inactive: 0.002 |
| CLCN7 (UniProt P51798) | inactive: 0.07 |
| CNOT3 (UniProt O75175) | inactive: 0.005 |
| CLDND1 (UniProt Q9NY35) | inactive: -0.032 |
| CNOT9 isoform 2 (UniProt Q92600) | inactive: 0.061 |
| CIAPIN1 (UniProt Q6FI81) | inactive: 0.022 |

As entered above:
Entry for COA1 (UniProt Q9GZY4) under log2 fold change: inactive: -0.021
Entry for CMPK2 (UniProt Q5EBM0) under log2 fold change: inactive: -0.024
